# Results from US20040058876A1, “Secondary binding site of dipeptidyl peptidase IV (DP IV)” (priority 2002, published 2004).
# The chains behind the UniProt entries cited, without tags or fusion partners. Residues count along the entry.
# UniProt P27487, 37-766 R560A: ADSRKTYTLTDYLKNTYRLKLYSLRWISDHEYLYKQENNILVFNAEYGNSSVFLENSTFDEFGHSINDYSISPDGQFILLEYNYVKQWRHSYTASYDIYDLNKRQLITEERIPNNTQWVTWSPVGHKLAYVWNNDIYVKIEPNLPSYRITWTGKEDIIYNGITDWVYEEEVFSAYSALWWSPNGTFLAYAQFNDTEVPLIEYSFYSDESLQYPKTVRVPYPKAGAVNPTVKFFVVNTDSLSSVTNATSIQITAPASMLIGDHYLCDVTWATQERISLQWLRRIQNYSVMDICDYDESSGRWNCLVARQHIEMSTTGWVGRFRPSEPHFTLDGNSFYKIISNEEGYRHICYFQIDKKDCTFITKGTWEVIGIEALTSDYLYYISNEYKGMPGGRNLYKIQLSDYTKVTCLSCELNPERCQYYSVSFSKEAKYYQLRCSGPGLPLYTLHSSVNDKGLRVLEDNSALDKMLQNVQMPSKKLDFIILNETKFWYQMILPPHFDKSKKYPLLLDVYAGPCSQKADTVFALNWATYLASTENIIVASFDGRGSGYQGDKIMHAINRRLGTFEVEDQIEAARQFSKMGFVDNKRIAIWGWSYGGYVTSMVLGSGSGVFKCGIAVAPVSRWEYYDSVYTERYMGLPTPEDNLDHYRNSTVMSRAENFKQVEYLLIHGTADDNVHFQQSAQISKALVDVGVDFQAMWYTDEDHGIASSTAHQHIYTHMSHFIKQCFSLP
# UniProt P27487, 37-766 W629A: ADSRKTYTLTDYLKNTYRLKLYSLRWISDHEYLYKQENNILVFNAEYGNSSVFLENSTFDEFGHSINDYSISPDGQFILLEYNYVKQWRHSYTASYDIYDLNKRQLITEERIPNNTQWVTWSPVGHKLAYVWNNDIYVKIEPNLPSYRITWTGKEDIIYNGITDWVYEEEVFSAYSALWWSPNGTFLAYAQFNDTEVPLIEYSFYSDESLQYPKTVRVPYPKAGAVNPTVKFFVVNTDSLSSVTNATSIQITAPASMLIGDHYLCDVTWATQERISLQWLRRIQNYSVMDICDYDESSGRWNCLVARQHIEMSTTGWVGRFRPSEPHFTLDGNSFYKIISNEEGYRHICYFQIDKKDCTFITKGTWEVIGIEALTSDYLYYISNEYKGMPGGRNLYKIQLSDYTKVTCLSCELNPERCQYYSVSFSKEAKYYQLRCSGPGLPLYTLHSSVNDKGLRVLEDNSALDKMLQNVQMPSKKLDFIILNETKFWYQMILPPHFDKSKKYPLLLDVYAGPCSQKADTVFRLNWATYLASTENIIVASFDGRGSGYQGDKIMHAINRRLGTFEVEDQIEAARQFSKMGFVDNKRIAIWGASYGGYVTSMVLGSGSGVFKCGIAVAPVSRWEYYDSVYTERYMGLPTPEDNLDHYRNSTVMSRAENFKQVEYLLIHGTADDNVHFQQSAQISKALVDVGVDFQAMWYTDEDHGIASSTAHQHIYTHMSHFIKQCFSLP
# UniProt P27487, 37-766: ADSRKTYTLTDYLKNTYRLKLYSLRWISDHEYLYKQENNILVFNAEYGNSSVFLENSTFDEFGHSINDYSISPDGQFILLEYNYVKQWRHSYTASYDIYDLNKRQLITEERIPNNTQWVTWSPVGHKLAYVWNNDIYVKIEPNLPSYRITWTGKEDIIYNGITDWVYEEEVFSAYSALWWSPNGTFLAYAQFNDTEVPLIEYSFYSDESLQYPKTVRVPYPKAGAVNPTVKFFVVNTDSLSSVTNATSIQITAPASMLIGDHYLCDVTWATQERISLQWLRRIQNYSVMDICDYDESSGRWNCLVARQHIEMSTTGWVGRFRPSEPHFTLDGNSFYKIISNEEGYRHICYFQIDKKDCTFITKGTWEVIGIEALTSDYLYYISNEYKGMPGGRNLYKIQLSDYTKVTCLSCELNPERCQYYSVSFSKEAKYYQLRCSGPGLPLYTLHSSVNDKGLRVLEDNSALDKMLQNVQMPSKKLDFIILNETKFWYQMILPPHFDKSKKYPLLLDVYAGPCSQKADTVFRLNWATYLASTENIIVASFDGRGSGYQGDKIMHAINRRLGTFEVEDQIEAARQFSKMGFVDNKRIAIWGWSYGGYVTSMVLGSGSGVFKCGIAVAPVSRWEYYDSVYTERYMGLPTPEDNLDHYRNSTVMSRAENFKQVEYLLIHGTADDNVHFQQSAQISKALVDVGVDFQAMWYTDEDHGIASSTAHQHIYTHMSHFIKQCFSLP
# At least one compound was matched to its structure with a doubt left. Residues, ends and D or L forms follow the SMILES beside them.
# Assays:
# Experiment in all cases: Determination of Ki in competition to standard substrate GP-4NA
# Format in all cases: biochemical
# [1] = target: T1, mu 15: recombinant human DP IV, mutation R560A (Homo sapiens, UniProt P27487, R560A); settings: mu 15 DP IV, competition to GP-4NA
# T1 construct: His6 (N); made in house; host or cells: Pichia pastoris X-33 (vector pPICαC, secreted into the medium)
# Protocol: (§1) In order to measure the inhibition constant Ki a photometric assay was used The peptides were measured as competitors of the standard substrate GP-4-Nitroanilide. Three different substrate concentrations (0.4 mM to 0.05 mM) were combined with 8 different competitor concentrations (0.5 mM to 2 μM). […] Experiments were carried out under standard conditions: 30° C. in pH 7.6 40 mM HEPES (Sigma-Aldrich) buffer. Nitroaniline production was monitored using a HTS 7000+ microplate reader (PerkinElmer, Überlingen, Germany).
# (§2) For a reversible competitive inhibition is to assumed: [formula]
# [2] = target: T2, mu 16: recombinant human DP IV, mutation W629A (Homo sapiens, UniProt P27487, W629A); settings: mu 16 DP IV, competition to GP-4NA
# T2 construct: His6 (N); made in house; host or cells: Pichia pastoris X-33 (vector pPICαC, secreted into the medium)
# Protocol: as §1, §2
# [3] = target: T3, rh wt: recombinant human DP IV, wild type (Homo sapiens, UniProt P27487); settings: competition to GP-4NA
# T3 construct: His6 (N); made in house; host or cells: Pichia pastoris X-33 (vector pPICαC, secreted into the medium)
# Protocol: as §1, §2
smiles,measurement,setting,value
CC(C)C[C@H](NC(=O)[C@H](CCCNC(=N)N)NC(=O)[C@H](CCCNC(=N)N)NC(=O)CC[C@H](N)C(=O)N1CCSC1)C(=O)N[C@@H](CO)C(=O)N[C@@H](Cc1ccc(O)cc1)C(=O)N[C@@H](CO)C(=O)N[C@@H](CCCNC(=N)N)C(=O)N[C@@H](CCCNC(=N)N)C(=O)N[C@@H](CCCNC(=N)N)C(=O)N[C@@H](Cc1ccccc1)C(=O)O [Transp 01] (HELM PEPTIDE1{[N[C@@H](CCC(=O)[*:2])C(=O)N1CCSC1].R.R.L.S.Y.S.R.R.R.F}$$$$V2.0),Ki,[1],0.0769 µM
same,Ki,[2],0.0855 µM
same,Ki,[3],0.0508 µM
